From the supplement of paper PMC11732987, “Enantioselective OTUD7B fragment discovery through chemoproteomics screening and high-throughput optimisation” (Communications Chemistry, 2025)
The list shows a part of the results. The data scatter; read single values as rough.

By UniProt entry, the sequences of proteins in these tests, tags left out. Where a name states a change or a piece, a line headed by the entry shows the natural chain unless it says otherwise. Residues count along the entry.
UniProt P23025: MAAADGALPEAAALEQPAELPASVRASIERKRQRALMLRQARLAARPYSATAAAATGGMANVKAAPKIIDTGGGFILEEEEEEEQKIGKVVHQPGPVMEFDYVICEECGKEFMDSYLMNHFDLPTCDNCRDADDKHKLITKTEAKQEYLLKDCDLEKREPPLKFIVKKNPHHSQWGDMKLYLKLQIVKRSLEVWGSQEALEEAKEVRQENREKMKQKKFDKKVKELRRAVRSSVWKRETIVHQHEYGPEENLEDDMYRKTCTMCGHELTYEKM
UniProt Q96QU8: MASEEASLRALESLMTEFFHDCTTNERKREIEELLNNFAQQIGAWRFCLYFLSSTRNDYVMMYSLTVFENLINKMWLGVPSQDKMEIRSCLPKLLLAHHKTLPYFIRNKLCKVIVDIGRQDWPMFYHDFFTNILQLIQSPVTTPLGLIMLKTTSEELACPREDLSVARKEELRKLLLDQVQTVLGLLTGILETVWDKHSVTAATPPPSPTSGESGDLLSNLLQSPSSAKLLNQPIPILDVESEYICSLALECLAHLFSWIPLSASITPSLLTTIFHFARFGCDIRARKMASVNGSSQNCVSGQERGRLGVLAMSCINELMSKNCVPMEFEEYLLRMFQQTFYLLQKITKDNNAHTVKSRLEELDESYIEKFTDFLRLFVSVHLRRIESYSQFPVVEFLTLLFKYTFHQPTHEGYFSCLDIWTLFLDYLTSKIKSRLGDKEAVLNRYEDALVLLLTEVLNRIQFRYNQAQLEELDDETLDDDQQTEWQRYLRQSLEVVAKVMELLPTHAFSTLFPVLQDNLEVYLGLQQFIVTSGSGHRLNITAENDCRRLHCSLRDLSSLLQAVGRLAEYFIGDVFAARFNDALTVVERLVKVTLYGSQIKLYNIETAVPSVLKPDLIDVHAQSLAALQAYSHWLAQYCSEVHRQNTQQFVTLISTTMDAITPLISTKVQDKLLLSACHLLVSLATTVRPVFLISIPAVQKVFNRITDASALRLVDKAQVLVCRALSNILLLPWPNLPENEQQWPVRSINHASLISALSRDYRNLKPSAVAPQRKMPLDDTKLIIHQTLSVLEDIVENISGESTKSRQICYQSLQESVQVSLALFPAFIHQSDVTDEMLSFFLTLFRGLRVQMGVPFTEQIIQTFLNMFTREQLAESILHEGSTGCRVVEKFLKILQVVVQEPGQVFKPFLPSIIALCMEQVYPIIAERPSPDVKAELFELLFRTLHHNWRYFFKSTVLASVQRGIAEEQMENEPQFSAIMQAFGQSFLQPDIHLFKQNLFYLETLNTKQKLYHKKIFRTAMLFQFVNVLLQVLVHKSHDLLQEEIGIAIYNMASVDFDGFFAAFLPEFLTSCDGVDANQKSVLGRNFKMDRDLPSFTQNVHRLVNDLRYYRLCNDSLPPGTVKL
UniProt Q14191, whole entry, looked up: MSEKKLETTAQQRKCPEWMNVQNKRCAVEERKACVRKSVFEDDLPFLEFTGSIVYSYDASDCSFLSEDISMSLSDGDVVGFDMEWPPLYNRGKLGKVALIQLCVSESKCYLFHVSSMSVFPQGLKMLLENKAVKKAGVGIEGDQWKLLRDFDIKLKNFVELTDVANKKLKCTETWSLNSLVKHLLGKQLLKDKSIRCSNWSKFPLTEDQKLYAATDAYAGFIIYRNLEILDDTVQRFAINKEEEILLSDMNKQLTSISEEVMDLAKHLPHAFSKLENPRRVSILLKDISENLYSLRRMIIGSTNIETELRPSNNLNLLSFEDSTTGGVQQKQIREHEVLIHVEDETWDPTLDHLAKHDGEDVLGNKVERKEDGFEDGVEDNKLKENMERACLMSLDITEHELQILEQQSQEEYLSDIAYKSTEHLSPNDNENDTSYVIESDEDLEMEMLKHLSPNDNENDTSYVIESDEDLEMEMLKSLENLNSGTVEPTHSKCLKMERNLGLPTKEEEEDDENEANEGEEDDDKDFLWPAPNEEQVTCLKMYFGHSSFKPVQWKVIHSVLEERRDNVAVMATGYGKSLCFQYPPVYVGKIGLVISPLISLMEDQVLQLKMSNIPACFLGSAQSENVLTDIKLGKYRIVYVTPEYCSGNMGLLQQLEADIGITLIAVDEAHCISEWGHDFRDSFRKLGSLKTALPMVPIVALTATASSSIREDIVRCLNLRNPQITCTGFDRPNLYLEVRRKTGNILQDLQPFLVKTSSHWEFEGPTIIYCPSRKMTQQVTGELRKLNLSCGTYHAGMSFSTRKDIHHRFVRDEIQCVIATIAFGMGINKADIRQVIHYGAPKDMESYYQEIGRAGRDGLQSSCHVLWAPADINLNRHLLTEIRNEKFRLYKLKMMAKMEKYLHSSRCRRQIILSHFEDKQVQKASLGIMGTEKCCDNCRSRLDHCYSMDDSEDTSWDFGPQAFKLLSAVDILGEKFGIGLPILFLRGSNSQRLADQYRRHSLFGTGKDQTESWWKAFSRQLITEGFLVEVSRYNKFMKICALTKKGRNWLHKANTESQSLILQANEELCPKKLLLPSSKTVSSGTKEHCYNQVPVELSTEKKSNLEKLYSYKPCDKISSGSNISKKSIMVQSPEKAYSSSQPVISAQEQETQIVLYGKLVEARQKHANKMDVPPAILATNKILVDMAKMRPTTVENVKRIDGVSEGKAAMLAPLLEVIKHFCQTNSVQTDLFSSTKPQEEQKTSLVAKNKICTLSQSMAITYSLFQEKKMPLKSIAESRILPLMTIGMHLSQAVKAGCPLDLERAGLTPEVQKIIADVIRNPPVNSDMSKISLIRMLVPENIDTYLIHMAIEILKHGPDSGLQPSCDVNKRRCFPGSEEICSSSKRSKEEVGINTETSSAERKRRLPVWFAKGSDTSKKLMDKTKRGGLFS
UniProt P12956: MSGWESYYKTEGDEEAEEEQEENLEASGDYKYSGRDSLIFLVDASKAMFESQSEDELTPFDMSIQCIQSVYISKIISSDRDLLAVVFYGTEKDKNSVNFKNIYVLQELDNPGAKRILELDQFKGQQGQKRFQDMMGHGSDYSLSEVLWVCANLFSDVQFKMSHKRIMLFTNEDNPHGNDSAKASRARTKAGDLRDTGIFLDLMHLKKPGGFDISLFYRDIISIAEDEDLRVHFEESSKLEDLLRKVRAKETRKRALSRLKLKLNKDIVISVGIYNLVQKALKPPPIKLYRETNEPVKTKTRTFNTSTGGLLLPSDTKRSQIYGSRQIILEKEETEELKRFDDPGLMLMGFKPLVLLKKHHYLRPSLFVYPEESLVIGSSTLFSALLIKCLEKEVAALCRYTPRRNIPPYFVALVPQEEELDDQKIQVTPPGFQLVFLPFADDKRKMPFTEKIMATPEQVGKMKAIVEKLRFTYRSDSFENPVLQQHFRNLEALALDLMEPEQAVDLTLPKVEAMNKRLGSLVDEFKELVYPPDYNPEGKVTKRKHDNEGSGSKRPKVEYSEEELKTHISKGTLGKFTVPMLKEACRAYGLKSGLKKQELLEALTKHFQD
UniProt Q9ULM3, 1111-1130: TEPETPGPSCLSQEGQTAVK
UniProt Q9NRW7, 346-371: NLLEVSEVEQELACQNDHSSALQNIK
UniProt Q9Y3S1: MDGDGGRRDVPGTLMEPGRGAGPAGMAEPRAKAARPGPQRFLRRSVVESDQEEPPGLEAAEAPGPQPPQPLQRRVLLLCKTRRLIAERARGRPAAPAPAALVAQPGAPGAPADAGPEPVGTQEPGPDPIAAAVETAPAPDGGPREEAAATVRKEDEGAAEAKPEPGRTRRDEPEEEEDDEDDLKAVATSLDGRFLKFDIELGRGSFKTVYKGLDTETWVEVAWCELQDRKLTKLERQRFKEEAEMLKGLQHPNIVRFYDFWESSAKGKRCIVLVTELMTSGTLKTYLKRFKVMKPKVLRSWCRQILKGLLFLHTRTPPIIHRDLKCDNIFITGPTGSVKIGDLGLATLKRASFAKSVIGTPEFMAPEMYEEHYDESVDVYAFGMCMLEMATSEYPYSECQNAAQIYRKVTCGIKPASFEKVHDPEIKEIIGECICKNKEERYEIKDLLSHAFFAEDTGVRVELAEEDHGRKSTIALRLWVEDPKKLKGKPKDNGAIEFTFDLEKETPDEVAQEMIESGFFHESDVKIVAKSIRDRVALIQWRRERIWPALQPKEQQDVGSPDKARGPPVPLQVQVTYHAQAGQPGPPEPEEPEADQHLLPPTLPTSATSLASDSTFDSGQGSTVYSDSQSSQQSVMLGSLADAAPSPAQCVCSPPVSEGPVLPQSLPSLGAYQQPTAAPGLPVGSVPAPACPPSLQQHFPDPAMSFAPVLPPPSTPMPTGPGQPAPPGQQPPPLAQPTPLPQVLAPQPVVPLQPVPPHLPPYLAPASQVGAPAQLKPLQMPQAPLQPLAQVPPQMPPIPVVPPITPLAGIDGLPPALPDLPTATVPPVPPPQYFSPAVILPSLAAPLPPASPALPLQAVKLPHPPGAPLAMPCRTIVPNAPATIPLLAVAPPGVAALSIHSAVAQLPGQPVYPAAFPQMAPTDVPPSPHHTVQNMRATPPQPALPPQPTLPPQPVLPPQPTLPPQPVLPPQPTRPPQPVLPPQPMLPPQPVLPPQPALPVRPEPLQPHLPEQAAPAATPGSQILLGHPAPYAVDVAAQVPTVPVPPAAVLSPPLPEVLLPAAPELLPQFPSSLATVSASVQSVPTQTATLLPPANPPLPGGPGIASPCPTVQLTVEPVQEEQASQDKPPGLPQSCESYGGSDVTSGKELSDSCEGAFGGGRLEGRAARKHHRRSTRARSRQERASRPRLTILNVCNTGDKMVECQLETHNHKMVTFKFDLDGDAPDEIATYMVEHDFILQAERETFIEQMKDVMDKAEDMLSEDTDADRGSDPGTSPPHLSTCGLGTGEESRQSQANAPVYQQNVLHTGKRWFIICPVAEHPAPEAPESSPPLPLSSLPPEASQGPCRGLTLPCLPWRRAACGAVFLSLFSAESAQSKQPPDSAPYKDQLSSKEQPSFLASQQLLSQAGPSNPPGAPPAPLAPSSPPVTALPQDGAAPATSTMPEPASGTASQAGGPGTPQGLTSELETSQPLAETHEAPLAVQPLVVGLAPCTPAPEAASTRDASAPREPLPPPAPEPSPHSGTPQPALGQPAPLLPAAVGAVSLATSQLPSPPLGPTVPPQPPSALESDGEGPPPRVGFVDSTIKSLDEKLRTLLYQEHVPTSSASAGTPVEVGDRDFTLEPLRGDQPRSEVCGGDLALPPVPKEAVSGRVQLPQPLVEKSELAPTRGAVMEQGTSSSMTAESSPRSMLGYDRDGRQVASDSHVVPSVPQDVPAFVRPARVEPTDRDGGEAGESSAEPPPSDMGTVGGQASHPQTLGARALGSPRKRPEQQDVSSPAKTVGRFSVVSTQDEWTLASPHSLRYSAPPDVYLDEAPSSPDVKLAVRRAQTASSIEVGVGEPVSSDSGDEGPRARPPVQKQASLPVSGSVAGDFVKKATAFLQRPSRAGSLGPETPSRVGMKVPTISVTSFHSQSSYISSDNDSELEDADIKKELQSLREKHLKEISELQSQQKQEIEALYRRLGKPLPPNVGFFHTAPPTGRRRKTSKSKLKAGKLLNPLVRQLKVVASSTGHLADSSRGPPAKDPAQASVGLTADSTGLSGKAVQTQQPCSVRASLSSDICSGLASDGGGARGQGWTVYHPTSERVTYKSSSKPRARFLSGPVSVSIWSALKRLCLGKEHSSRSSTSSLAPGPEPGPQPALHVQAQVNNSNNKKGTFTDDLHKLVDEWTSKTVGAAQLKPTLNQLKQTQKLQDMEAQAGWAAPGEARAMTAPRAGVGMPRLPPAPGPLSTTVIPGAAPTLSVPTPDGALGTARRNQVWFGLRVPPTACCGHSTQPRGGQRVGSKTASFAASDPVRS
UniProt P10074, 263-284: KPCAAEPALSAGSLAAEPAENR
UniProt Q6PJT7: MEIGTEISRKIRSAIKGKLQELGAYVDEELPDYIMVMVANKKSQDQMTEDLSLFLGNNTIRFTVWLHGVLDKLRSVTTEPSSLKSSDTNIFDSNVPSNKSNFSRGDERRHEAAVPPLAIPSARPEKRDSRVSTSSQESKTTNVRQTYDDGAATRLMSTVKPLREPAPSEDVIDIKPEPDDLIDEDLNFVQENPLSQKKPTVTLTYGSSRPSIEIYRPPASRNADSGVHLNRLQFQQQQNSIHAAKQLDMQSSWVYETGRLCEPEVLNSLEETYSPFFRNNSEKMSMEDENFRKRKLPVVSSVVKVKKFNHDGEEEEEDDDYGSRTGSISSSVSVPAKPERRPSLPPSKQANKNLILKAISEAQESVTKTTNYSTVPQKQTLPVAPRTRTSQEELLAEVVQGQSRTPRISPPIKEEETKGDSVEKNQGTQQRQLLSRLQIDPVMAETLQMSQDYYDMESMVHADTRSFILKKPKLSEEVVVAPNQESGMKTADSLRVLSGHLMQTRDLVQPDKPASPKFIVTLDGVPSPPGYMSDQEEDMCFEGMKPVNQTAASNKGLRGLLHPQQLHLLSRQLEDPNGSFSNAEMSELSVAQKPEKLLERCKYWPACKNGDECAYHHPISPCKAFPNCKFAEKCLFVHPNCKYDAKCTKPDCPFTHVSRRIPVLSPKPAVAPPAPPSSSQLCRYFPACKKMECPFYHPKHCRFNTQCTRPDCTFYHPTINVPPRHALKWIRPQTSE
UniProt Q9Y4P8, 375-406: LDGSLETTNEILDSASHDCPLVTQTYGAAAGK
UniProt Q9Y4P8, 417-439: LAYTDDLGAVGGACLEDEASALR

How the values were obtained:
[1] = compound: ClCC(=O)N[C@@H]1CCCc2ccccc12; assay: log2 mean competition ratio of IA-DTB cysteine labelling (DMSO/compound) (log2 ratio); higher = stronger cysteine engagement by compound; conditions: treatment time: 4 h, cell line lysate: HEK293T
Experimental: (§1)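 IA-DTB competitive cysteine chemoproteomics in HEK293T RIPA lysate. Lysates were treated with compound 29 or 30 at 50 or 200 µM for 4 h, then IA-DTB (500 µM, 1 h), trypsin-digested, NeutrAvidin-enriched and analysed by diaPASEF. Competition ratio = intensity DMSO / intensity compound (n=4 treated, n=64 DMSO); binding: mean log2 CR ≥ 1 and p ≤ 0.05 plus QC filters. Target is the cysteine site.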

[2] = compound: ClCC(=O)N[C@H]1CCCc2ccccc12; assay: as above; conditions: treatment time: 4 h, cell line lysate: HEK293T
Experimental: as §1

Target | log2 mean competition ratio ([1]; 50 µM) | log2 mean competition ratio ([1]; 200 µM) | log2 mean competition ratio ([2]; 50 µM) | log2 mean competition ratio ([2]; 200 µM)
WDR3 C183 (UniProt Q9UNX4) | -0.0999 | -0.0617 | -0.367 | -0.0568
XPA C153 (UniProt P23025) | -0.0359 | 0.382 | -0.259 | 0.297
XPO6 C1114 (UniProt Q96QU8) | 0.0153 | 0.0835 | -0.352 | -0.171
VPS51 C421 (UniProt Q9UID3) | -0.0654 | -0.258 | -0.308 | -0.0761
ZC3H7A C149 (UniProt Q8IWR0) | 0.372 | 0.0865 | 0.0897 | -0.0996
ZBTB33 C431 (UniProt Q86T24) | -0.0668 | 0.152 | -0.0612 | 0.201
WRN C1070 (UniProt Q14191) | -0.427 | 0.474 | -0.0738 | -0.199
XRCC6 C398 (UniProt P12956) | -0.357 | 0.55 | -0.121 | 0.193
WSCD2 C509 | -0.159 | -0.185 | -0.0696 | -0.0402
XPC C514 (UniProt Q01831) | -0.408 | 0.258 | -0.322 | 0.00244
XPO5 C419 (UniProt Q9HAV4) | 0.0735 | 0.106 | -0.0384 | 0.111
YTHDC2 C460 (UniProt Q9H6S0) | 0.0658 | -0.541 | 0.0243 | -0.278
ZBED1 C76 (UniProt O96006) | -0.116 | 0.155 | -0.284 | -0.19
YEATS2 C1120 (UniProt Q9ULM3) | -0.267 | -0.0572 | -0.287 | -0.0949
WDR75 C100 (UniProt Q8IWA0) | 0.0413 | -0.0332 | 0.0668 | -0.033
VPS45 C359 (UniProt Q9NRW7) | -0.224 | -0.119 | 0.289 | -0.535
YTHDF2 C482 (UniProt Q9Y5A9) | 0.188 | -0.114 | 0.204 | -0.0534
WRN C1367 (UniProt Q14191) | -0.0621 | 0.0841 | -0.02 | -0.0156
YDJC C119 (UniProt A8MPS7) | -0.18 | -0.0959 | -0.432 | 0.0275
WAPL C344 (UniProt Q7Z5K2) | 0.098 | -0.0183 | 0.062 | 0.0824
WDR54 C256 (UniProt Q9H977) | -0.402 | -0.375 | -0.282 | 0.158
VPS4B C62 (UniProt O75351) | -0.194 | -0.0557 | -0.207 | 0.135
WDR41 C340 (UniProt Q9HAD4) | -0.364 | 0.205 | -0.513 | 0.0522
YEATS2 C1232 (UniProt Q9ULM3) | -0.115 | 0.154 | 0.14 | -0.237

Target | log2 mean competition ratio ([1]; 50 µM) | log2 mean competition ratio ([1]; 200 µM) | log2 mean competition ratio ([2]; 50 µM) | log2 mean competition ratio ([2]; 200 µM)
WASHC5 C1064 (UniProt Q12768) | 0.0585 | -0.0925 | 0.104 | 0.0537
WWP1 C335 | -0.267 | 0.332 | -0.341 | 0.162
WNK2 C1153 (UniProt Q9Y3S1) | 0.622 | -0.12 | 0.401 | -0.00271
WDR18 C384 (UniProt Q9BV38) | 0.0211 | -0.222 | -0.158 | -0.233
ZBTB48 C265 (UniProt P10074) | -0.0624 | 0.176 | -0.12 | 0.177
WDR59 C865 (UniProt Q6PJI9) | 0.287 | 0.171 | -0.0636 | 0.0212
WRN C1299 (UniProt Q14191) | 0.294 | 0.147 | 0.124 | 0.16
ZBTB44 C272 (UniProt Q8NCP5) | -0.112 | -0.101 | 0.0246 | -0.113
YDJC C182 (UniProt A8MPS7) | -0.0796 | 0.135 | 0.163 | 0.0848
WDR81 C1256 (UniProt Q562E7) | 0.505 | 0.0682 | 0.0763 | -0.0159
WNK2 C2051 (UniProt Q9Y3S1) | 0.114 | 0.0995 | 0.0575 | 0.117
ZC3H14 C693 (UniProt Q6PJT7) | 0.0679 | 0.075 | 0.457 | -0.173
ZC3H12A C103 (UniProt Q5D1E8) | -0.536 | -0.568 | -0.152 | -0.364
WIPI2 C393 (UniProt Q9Y4P8) | -0.259 | -0.209 | 0.203 | -0.522
WIPI2 C430 (UniProt Q9Y4P8) | 0.0722 | -0.566 | 0.236 | -0.052
ZBTB21 C911 (UniProt Q9ULJ3) | 0.243 | -0.257 | 0.0663 | -0.179
ZADH2 C55 (UniProt Q8N4Q0) | 0.553 | 0.025 | 0.699 | 0.172
VPS35 C156 | 0.0833 | -0.0282 | 0.105 | -0.0556
WASHC4 C936 (UniProt Q2M389) | 0.452 | -0.00583 | 0.402 | -0.101
XPO1 C99 (UniProt O14980) | -0.048 | -0.0387 | 0.0503 | -0.0934
VPS8 C216 (UniProt Q8N3P4) | 0.0495 | 0.0437 | -0.125 | -0.0791
ZBTB18 C13 (UniProt Q99592) | -0.0178 | 0.000249 | -0.0516 | 0.0081
ZC3H13 C1046 (UniProt Q5T200) | -0.0891 | -0.102 | 0.353 | 0.146
VPS51 C485 (UniProt Q9UID3) | 0.0632 | 0.0535 | 0.0747 | -0.0178

Taken from the listing for reference:
Target | log2 mean competition ratio ([1]; 50 µM) | log2 mean competition ratio ([1]; 200 µM) | log2 mean competition ratio ([2]; 50 µM) | log2 mean competition ratio ([2]; 200 µM)
WAPL C344 (UniProt Q7Z5K2) | 0.098 | -0.0183 | 0.062 | 0.0824
WDR54 C256 (UniProt Q9H977) | -0.402 | -0.375 | -0.282 | 0.158
VPS4B C62 (UniProt O75351) | -0.194 | -0.0557 | -0.207 | 0.135
WDR41 C340 (UniProt Q9HAD4) | -0.364 | 0.205 | -0.513 | 0.0522
YEATS2 C1232 (UniProt Q9ULM3) | -0.115 | 0.154 | 0.14 | -0.237
WASHC5 C1064 (UniProt Q12768) | 0.0585 | -0.0925 | 0.104 | 0.0537
WWP1 C335 | -0.267 | 0.332 | -0.341 | 0.162
WNK2 C1153 (UniProt Q9Y3S1) | 0.622 | -0.12 | 0.401 | -0.00271
